For the assay, the target named is myc-tagged σ1A WT (AP-1 σ1A subunit with a C-terminal triple-myc tag) (human) (UniProt P61966). The assay can be described thus: co-IP; HEK293T cells transiently transfected with WT or L90P myc-tagged σ1A; cell extracts immunoprecipitated with anti-myc or with anti-γ1, then SDS-PAGE and immunoblotting with anti-γ1 or anti-myc (reciprocal); untransfected cells as control. (A western blot detects proteins with antibodies after separation by electrophoresis.)

Amino acid sequences for entries named in this document (tags omitted).
UniProt P61966: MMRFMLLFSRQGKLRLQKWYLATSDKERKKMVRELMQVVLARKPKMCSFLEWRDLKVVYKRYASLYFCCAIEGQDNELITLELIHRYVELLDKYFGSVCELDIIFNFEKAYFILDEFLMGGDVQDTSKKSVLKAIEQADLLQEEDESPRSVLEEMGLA
UniProt O43747: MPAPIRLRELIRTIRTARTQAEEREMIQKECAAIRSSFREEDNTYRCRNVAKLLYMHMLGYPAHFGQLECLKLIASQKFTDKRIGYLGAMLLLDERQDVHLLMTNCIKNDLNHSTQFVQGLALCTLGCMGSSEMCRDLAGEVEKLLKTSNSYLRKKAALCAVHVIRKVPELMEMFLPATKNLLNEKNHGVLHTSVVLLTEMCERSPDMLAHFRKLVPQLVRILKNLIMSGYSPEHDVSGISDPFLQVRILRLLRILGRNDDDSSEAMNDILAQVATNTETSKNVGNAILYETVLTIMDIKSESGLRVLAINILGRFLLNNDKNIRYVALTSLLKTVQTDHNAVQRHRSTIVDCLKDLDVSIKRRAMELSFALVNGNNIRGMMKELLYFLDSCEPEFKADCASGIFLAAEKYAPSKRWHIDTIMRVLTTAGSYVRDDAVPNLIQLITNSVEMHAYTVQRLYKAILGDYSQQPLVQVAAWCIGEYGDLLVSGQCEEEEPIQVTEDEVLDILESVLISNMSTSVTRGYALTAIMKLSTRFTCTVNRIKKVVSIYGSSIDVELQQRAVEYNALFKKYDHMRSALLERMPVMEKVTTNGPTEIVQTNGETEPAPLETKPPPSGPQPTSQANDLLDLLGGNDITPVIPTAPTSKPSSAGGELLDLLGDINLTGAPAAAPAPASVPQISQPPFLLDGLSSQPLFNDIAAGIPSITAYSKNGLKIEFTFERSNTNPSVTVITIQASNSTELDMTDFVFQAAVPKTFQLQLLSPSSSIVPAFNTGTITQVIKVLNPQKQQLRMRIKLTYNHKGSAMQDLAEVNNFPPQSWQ

Binding data for one substance are collected here from publication PMC11525306.

These are yes or no findings as the source states them, for the method shown. In cells and extracts the contact can be indirect. Some binding calls cover weakened binding; strength is not graded here.

Consider “endogenous AP-1 γ1 subunit (from UniProt O43747 1-822)”, for which the binding entry is recorded as “binds”.
